Chains of the proteins cited; added tags and fusions are not shown. Lines headed by an entry give the natural chain unless they say otherwise; changes in a name come on top.
UniProt O75581: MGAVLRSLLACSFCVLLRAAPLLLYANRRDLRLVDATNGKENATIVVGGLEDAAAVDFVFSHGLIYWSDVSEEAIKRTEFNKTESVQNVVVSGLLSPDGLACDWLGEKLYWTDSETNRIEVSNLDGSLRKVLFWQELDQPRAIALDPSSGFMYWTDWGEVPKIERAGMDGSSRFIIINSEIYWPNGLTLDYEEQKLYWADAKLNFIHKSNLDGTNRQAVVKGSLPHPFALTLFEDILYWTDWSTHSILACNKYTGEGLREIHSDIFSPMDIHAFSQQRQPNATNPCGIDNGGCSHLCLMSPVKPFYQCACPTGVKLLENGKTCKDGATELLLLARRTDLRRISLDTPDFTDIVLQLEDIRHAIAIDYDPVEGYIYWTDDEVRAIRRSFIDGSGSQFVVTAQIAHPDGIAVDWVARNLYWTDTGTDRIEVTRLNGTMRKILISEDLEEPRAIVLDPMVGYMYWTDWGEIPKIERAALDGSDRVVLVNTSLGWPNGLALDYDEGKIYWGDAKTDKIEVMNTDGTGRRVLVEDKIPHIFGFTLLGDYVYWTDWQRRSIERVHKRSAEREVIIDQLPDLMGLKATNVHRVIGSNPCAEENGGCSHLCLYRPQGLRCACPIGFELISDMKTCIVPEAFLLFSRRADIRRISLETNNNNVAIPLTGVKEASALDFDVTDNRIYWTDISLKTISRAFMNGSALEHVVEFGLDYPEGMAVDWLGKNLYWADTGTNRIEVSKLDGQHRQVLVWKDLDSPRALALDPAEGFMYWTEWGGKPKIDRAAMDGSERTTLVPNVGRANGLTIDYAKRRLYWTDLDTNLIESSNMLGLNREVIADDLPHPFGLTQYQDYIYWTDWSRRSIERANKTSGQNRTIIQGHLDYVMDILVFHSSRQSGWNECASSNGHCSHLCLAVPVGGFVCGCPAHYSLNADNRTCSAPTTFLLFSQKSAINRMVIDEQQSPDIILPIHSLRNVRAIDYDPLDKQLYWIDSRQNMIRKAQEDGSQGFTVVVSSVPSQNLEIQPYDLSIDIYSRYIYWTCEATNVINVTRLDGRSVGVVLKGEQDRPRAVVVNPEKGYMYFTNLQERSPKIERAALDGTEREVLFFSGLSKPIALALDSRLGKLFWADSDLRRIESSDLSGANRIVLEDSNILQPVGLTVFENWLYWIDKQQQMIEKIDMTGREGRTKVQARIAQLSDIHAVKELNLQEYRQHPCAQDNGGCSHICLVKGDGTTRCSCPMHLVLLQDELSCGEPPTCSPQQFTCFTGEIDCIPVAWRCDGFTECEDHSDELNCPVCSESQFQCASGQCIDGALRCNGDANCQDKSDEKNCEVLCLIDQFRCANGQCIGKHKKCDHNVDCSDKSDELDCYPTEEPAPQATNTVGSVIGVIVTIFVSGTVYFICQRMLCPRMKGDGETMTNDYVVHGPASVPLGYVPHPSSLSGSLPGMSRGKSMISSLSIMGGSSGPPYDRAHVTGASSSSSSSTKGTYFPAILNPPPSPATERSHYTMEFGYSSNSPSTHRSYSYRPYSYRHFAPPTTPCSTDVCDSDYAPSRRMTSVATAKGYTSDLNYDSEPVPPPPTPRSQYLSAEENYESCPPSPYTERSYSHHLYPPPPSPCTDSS

According to article PMC2911377:

Experiments:
[1] = target: T1, amino terminal enhancer of Split (AES), HA tagged (human) (UniProt Q08117); assay: co-IP; nuclear fraction (50 µg) of HEK 293T cells co-transfected with AES-HA and a GFP-LRP6-ICD construct, 48 h; anti-HA antibody on M-280 sheep anti-mouse magnetic beads, 4°C, 3 h, immunoprecipitation buffer (0.5% NP-40, 150 mM NaCl, 10 mM Tris pH 7.4); washed with high salt PBS (350 mM NaCl); blot with anti-GFP
T1 sequence: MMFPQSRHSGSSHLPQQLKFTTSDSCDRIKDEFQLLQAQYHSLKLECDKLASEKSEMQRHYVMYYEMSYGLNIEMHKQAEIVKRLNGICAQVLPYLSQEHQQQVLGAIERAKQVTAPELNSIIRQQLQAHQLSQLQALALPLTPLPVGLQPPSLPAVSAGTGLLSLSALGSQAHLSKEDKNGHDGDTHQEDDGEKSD

[2] = target: T1, amino terminal enhancer of Split (AES), HA tagged (human); assay: co-IP; cytosolic fraction (50 µg) of HEK 293T cells co-transfected with AES-HA and a GFP-LRP6-ICD construct, 48 h; anti-HA antibody on M-280 sheep anti-mouse magnetic beads, 4°C, 3 h, immunoprecipitation buffer; washed with high salt PBS (350 mM NaCl); blot with anti-GFP

In the case of “GFP tagged wild type LRP6 intracellular domain (LRP6-ICD) (from UniProt O75581) (domain or fragment)”, the binding [1] is reported as “binds” and the binding [2] is reported as “no binding (only in the cytosolic fraction)”.

No constants are given. Whether binding was seen depends on the method and setting. Binding seen in cells or lysates may run through a third protein. For some assays here: Binding calls can cover weak binding; strength is not graded here. Where a sequence is shown, tags or fusion partners need not be part of it.
